The results in this text go back to patent US20220282255.

By UniProt entry, the sequences of proteins in these tests, tags left out. Residues count along the entry.
UniProt P01137, 279-390: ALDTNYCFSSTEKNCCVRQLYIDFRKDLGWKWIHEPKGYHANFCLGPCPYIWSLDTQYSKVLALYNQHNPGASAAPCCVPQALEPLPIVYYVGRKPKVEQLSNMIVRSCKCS

For some of these results: Whether high values mean tight binding is not given here for every scale.

One data set deals with TGF-β1 (Homo sapiens) (UniProt P01137). Kind of data set: SPR. The conditions noted are these: 2'-F all pyrimidines (U,C); receptor-binding inhibition, 10 nM:30 nM; 1.9 at 10:10; purified recombinant protein; protein details: Recombinant Human TGF-β1, Peprotech; variant of SEQ ID NO: 35; counted as no binding.
With “GGGAGAACUUGGAGCUCCUGAAUAAGGGAGGGAGACUUGUGGAGGGCAAGAGUGCGACGUCAGUC [SEQ ID NO: 39]”, the binding signal turned out to be 5 % inhibition.

The same data set, now with this note: 2'-F all pyrimidines (U,C); receptor-binding inhibition, 10 nM:30 nM; purified recombinant protein; protein details: Recombinant Human TGF-β1, Peprotech; variant of SEQ ID NO: 21; counted as no binding.
For the sequence “GGGCGGGGAAACUUGUGGUGGGCUAA [SEQ ID NO: 30]”, the binding signal was -5.84 % inhibition.

Another data set has the same target. Kind of data set: activity in cells. The following applies: 2'-F all pyrimidines (U,C); 80 pM:20 nM; binds by SPR, judged no cell inhibition; purified recombinant protein; protein details: Recombinant Human TGF-β1, Peprotech. On the technique in general: Surface plasmon resonance follows binding to a sensor surface in real time, without labels.
Consider “GGGAGAACUUGGAGCUCCCCCUCGCACUUAAUGGGUUCUGUGGCUGGAGAAAGUGCGACGUCAGUC [SEQ ID NO: 18]”, for which the functional effect of the aptamer came to 16 % inhibition.
Still for that read-out and setting: next, “GGGAGAACUUGGAGCUGGUCCGGAAACUGGAUUCUCUCUAAAAGGGGUACCAGUGCGACGUCAGUC [SEQ ID NO: 20]”: 16 % inhibition; “GGGAUCCGCAUCUAGAGUACCGCGUGAGCGGCGUCUUGCUAUGACGUAAAGAAUCGUUACAACGUCUACUGAAGCUAUCA [SEQ ID NO: 11]”: 32 % inhibition; “GGGAGAACUUGGAGCUUGACGGCGCUACAUUAUGCUCCAACGGUACUUUAUAGUGCGACGUCAGUC [SEQ ID NO: 22]”: 16 % inhibition.
On the same count and under the same terms, next, “GGGAAUGCACUAGUGUUCAAUAAACACUAAGUGAUCCUCCUGCAAGCUAUGAAGAACUUAACGGCUCGUAAAGCUUGCACGUCGAGUCAG [SEQ ID NO: 28]”: -11 % inhibition.
Still for that read-out and setting: next, “GGGAGAACUUGGAGCUGAUGUCUGGAGUCCCCAUAUAUCACGUACAGUGUAGUGCGACGUCAGUC [SEQ ID NO: 17]”: 7 % inhibition.
For the sequence “GGGAUCCGCAUCUAGAGUACAUCGUGGCGGGAAAGCCGCCCCAUUCUCUCGGGUCCUAGAAACGUCUACUGAAGCUAUCA [SEQ ID NO: 5]”, the functional effect of the aptamer was found to be 11 % inhibition.
Same read-out and setting: next, “GGGAAUGCACUAGUGUUCAACAUUUAGCAACACAAGUCGUCCCCCACGGCAAGCAGUCCUCAAUCCUGACAAGCUUGCACGUCGAGUCAG [SEQ ID NO: 27]”: -9 % inhibition.
The same measure, in the same setting: with “GGGAUCCGCAUCUAGAGUACACUAGUCACAUUGCGUGUACAUUACUCUGCGCAAUCGAUAAACGUCUACUGAAGCUAUCA [SEQ ID NO: 13]” the figure was 19 % inhibition.

The same data set, now with this note: 2'-F all pyrimidines (U,C); 80 pM:20 nM; judged no inhibition; purified recombinant protein; protein details: Recombinant Human TGF-β1, Peprotech; counted as no effect.
Take “GGGAUCCGCAUCUAGAGUACGAUGCAUGUUUUUAUAAAGUAUUGUUAUGUAAUGCAUCAAAACGUCUACUGAAGCUAUCA [SEQ ID NO: 10]”: the functional effect of the aptamer turned out to be 15 % inhibition.
Take “GGGAUCCGCAUCUAGAGUACGAUGUGCUUGUGCUGAAAUUAGAUUUCGCCGACUUUCCCUAACGUCUACUGAAGCUAUCA [SEQ ID NO: 8]”: the functional effect of the aptamer turned out to be 22 % inhibition.
Still for that read-out and setting: with “GGGAUCCGCAUCUAGAGUACCUAGAGGUGACUUGGGACGCGAGUUAUAAGGGAAUAGUCCAACGUCUACUGAAGCUAUCA [SEQ ID NO: 12]” the figure was 14 % inhibition; with “GGGAUCCGCAUCUAGAGUACGAAUAGUAAGGGAAUGACUCUCGGACCAAUGUAUUGCUAUAACGUCUACUGAAGCUAUCA [SEQ ID NO: 7]”, 21 % inhibition.

The data set is the same for the next values; noted with them: 2'-F all pyrimidines (U,C); 80 pM:20 nM; judged no inhibition; purified recombinant protein; protein details: Recombinant Human TGF-β1, Peprotech; variant of SEQ ID NO: 35; counted as no effect.
With “GGGAGAACUUGGAGCUCCUGAAUAAGGGAGGGAGACUUGUGGAGGGCAAGAGUGCGACGUCAGUC [SEQ ID NO: 39]”, the functional effect of the aptamer was 15 % inhibition.
